# Among all 360,000 compounds or so, about 9,100 (2.5%) were called active. Inconclusive results, whose numbers are uncertain, are shown with a selection of clear calls. No stated cut-off is given here; in the data, active means max response below about -50%; inconclusive means no clear call, values can overlap the other calls; inactive means above that.
# Protein sequences, listed by entry. Tags and fused reporters are not part of them.
# UniProt P35462, whole entry, looked up: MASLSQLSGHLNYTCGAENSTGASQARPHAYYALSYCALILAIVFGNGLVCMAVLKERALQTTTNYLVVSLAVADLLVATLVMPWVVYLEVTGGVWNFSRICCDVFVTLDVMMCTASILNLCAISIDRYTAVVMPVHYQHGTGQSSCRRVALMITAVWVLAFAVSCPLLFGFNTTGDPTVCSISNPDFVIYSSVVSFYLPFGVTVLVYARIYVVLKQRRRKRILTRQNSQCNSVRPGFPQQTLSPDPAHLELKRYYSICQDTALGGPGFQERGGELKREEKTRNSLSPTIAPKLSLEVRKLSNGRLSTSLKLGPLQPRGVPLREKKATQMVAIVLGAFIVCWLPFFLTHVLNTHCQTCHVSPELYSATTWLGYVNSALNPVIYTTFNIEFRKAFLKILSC
# Target: D(3) dopamine receptor (Homo sapiens) (UniProt P35462)
# Test: qHTS of D3 Dopamine Receptor Antagonist: qHTS
# Settings: D3R cells, DiscoveRx beta-arrestin luminescence, antagonist mode; hits give low values
# Summary of the method: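 Cells plated overnight at 1500 cells/well, then exposed to library compounds with dopamine controls for 90 minutes at 37 degrees C. DiscoveRx reagent added for 30–60 minutes at room temperature; luminescence read, quantitative HTS format.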
# On the % scale 0 is the no-effect control and ±100 the full control effect.
row,SMILES,"max response, negative = inhibition"
1,O=C1CN2Cc3c(ccc(Cl)c3Cl)N=C2N1,inactive: 13.3%
2,CCOC(=O)N1CCN(CC(=O)Nc2nc3ccccc3s2)CC1,inactive: 18.9%
3,C[C@H](CO)N1C[C@H](C)[C@@H](CN(C)S(=O)(=O)c2cccc(F)c2)Oc2ncc(Br)cc2C1=O,inconclusive: -36.1%
4,COc1ccc(OC)c(C(=O)COC(=O)C(CCSC)NC(=O)COc2ccccc2)c1 (stereo not given),inactive: -5.46%
5,Cc1ccc(S(=O)(=O)Cc2ccc(C(=O)N3CCc4ccccc4C3)o2)cc1,inconclusive: -40.5%
6,COc1ccccc1N1CCN(C(=O)c2ccc3[nH]c(C)c(C)c3c2)CC1,inactive: -24.2%
7,C=CCN1c2ccccc2[C@]23C[C@@H](C(=O)OC)N(C(=O)c4cc(C)oc4C)C2=NC(C(=O)OC)=C(C(=O)OC)[C@H]13,inactive: -1.63%
8,COc1ccc(CSC(=S)NNc2ccccc2)cc1,inactive: -26.5%
9,O=S1(=O)CCOC[C@H](Cc2ccccc2)N1Cc1cccc(C(F)(F)F)c1,inconclusive: -39.4%
10,CC1CC(C)CN(CCC(=O)Nc2cccc(Cl)c2)C1 (stereo not given),inconclusive: -49.5%
11,CC1(C(=O)NS(=O)(=O)c2cccc(OC(F)F)c2)CCN1C(=O)CC(c1ccccc1)c1ccccc1 (stereo not given),inactive: 4.94%
12,Cc1ccc(SCCN2CCN(CCc3ccccc3)CCC2=O)cc1,active: -59.3%
13,O=C(/C=C/c1cccc(Br)c1)N1CCN(c2cccc(C(F)(F)F)c2)CC1,inactive: 9.15%
14,COc1cc(C2C=C(c3cccs3)Nc3ncnn32)cc(OC)c1OC (stereo not given),inconclusive: -37.1%
15,COc1ccc(N(CC(=O)NC2CCCCC2)C(=O)CNC(=O)c2ccco2)cc1,inconclusive: -34.3%
16,Cc1ccc(OCCCC(=O)ON=C(N)c2ccccc2C)cc1,inactive: -20.4%
17,O=C(O)COc1ccc2occ(C(=O)c3ccccc3)c2c1,inconclusive: -35.9%
18,CCN(CC)CCNC(=S)Nc1ccc2nc3n(c(=O)c2c1)CCCCC3,inconclusive: -40.6%
19,O=C(NCc1ccccn1)c1ccc(NS(=O)(=O)c2cccc(Cl)c2)cc1,active: -60.6%
20,CNc1c2cccc(C)c2nc2c(C(=O)NCCN(C)C)cccc12,inactive: 14.6%
21,CN(C)c1ccc(Nc2c3c4c(cccc4n(C)c2=O)C(=O)c2ccccc2-3)cc1,inconclusive: -34.3%
22,NC(=NC(=O)c1ccc(Cl)cc1)N1N=CCC1c1ccccc1 (stereo not given),inactive: 3.22%

row,SMILES,"max response, negative = inhibition"
1,CCOc1ccc(OCC)c(NC(=O)C2CCN(S(=O)(=O)c3cnc[nH]3)CC2)c1,inconclusive: -38.4%
2,Oc1ccc(N=Nc2c(O)ccc3ccccc23)cc1,inconclusive: -38.6%
3,CCOC(=O)C(C)(C)N(Cc1ccc(C)cc1)S(=O)(=O)c1ccc(Cl)c([N+](=O)[O-])c1,inconclusive: -44.5%
4,O=C(O)c1cccc(S(=O)(=O)N2Cc3ccccc3C2)c1,inconclusive: -31.7%
5,O=C(OCc1nnc(-c2ccc(Cl)cc2)o1)c1ccncc1,inactive: 15.9%
6,O=c1cnnc(SCc2ccc([N+](=O)[O-])cc2)[nH]1,inconclusive: -35.1%
7,O=[N+]([O-])c1ccc(-c2c(-c3ccccc3)ncc3cc(F)ccc23)cc1,inactive: 8.5%
8,O=C(Cn1ncc2c3ccccc3n(Cc3ccccc3)c2c1=O)N1CCN(c2ccccn2)CC1,inactive: 1.2%
9,O=C(NCC(=O)N(c1ccccc1)C(C(=O)NC1CCCC1)c1cccnc1)c1cccs1 (stereo not given),inconclusive: -31%
10,Cc1ccccc1NC(=O)C[n+]1cc(-c2ccccc2)n2c1CCC2,inconclusive: -42.1%
11,COCCNC(=O)c1nn(-c2cc(OC)cc(OC)c2)c(=O)c2ccccc12,inconclusive: -38.6%
12,OC(COc1c(F)cc(Br)cc1F)CN1CCN(c2ccc(F)cc2)CC1 (stereo not given),inconclusive: -45.4%
13,Cc1ccc(NC2=C/C(=N/S(=O)(=O)c3cccs3)c3ccccc3C2=O)cc1C,inactive: -0.168%
14,CN1CCN(C2Cc3cc(Cl)ccc3Sc3cc(F)ccc32)CC1 (stereo not given),active: -93.5%
15,CCOCCCn1c(SCC(=O)Nc2oc(C)c3c(C)n[nH]c(=O)c23)nnc1-c1ccncc1,inactive: 0.0633%
16,O=C(Nc1nnc(C2CC2)s1)c1cncc(Br)c1,inactive: -8.22%
17,CCOCCCNC(=O)c1c[nH]c2ccc(S(=O)(=O)Nc3cccc(OC)c3)cc2c1=O,inconclusive: -35.6%
18,COc1ccc(O)c(/C=N/NC(=O)c2ccc(CSc3nc(C)cc(C)n3)cc2)c1,inactive: 11.9%
19,Cc1noc(C)c1C(=O)N1CCCC(C(=O)c2cccc(OC(C)C)c2)C1 (stereo not given),inconclusive: -46%
20,CCCc1cc(=O)n2c(nc3ccccc32)[nH]1,inconclusive: -44.7%
21,COc1cc(S(=O)(=O)N2CCOCC2)ccc1NC(=O)COC(=O)CC12CC3CC(CC(C3)C1)C2,active: -52.7%
22,COc1ccc(OCC(=O)NC(=S)N2CCCc3ccccc32)cc1,inconclusive: -37.2%

row,SMILES,"max response, negative = inhibition"
1,Cc1ccc(C(=O)N2CCCC(N3CCN(c4ccccc4F)CC3)C2)s1 (stereo not given),inconclusive: -42.8%
2,Cc1c(C)n(C(=O)CSc2nc3ccccc3[nH]2)c2ccccc12,inconclusive: -33.2%
3,COc1cccc(NC(=S)N(CCC(C)C)C(C)c2ccncc2)c1 (stereo not given),inactive: -10.7%
4,COC(=O)C1=CN(c2cc(C)cc(C)c2)C=C(C(=O)OC)C1c1cccc(F)c1,inactive: -8.21%
5,CC(CNC(=O)c1ccc(Br)o1)NC(=O)c1ccc(Br)o1 (stereo not given),active: -72.7%
6,O=C(c1ccc(Cn2c(=S)[nH]c3cc4c(cc3c2=O)OCO4)cc1)N1CCN(c2ccccc2)CC1,inactive: -4.6%
7,CCOC(=O)C1=C(CN2CCCCC2)NC(=O)NC1c1cc(C)ccc1C (stereo not given),inactive: 1.68%
8,CCOC(=O)c1nn(-c2ccc(C)cc2)c(=O)c2c(N)scc12,inconclusive: -38.3%
9,CC[C@@]1(C(=O)OC)N[C@H](CN(C)C(=O)c2ccccc2)[C@@H]2C(=O)N(Cc3ccccc3)C(=O)[C@@H]21,inactive: 0%
10,CC1(C(=O)NCc2ccccc2)CSCC(=O)N1CCCn1ccnc1 (stereo not given),inactive: 11.4%
11,O=C(CCC(=O)N1CCOc2ccc(Cl)cc21)NCc1ccccc1,inconclusive: -42.2%
12,Nc1ccc(N2CCCCC2)c2nonc12,inconclusive: -31.4%
13,C[C@@H](CN1C2=NC[C@H](C)N2C[C@H]1Cc1ccc(O)cc1)NC(=O)CCC1CCCCC1,active: -66.3%
14,CCOc1ccc(CN2CCC(n3nccc3NC(=O)CCCc3ccccc3)CC2)cc1,active: -55.3%
15,Cc1cccnc1C(NC(=O)C1CCN(Cc2cn(C)c3ccccc23)CC1)c1ccc(Cl)cc1 (stereo not given),active: -65.2%
16,O=C(COc1ccc(Cl)cc1Cl)NCCCN1CCOCC1,inconclusive: -31.9%
17,O=C(c1ccc(Br)o1)N1CCN(C/C=C/c2ccccc2)CC1,active: -68.6%
18,CCCN(CCC)CCCNC(=S)Nc1ccc2nc(N3CCN(C)CC3)cc(C)c2c1,inactive: -18.8%
19,Cc1cccc2cc(CN(Cc3nnnn3C3CCCCC3)C3CCCC3)c3nnnn3c12,active: -64.8%
20,CNC(=O)c1cc2cc(OC)ccc2n1CCN(C)C,inconclusive: -36.8%
21,COc1cc(C)cc(C(=O)O)c1C1=C(O)c2cccc(O)c2C(=O)C1=O,inconclusive: -32.9%
22,CCN1CCc2c(sc(N)c2C#N)C1,inactive: -20.9%

row,SMILES,"max response, negative = inhibition"
1,Cc1cccc(CN2CCN(C(=O)c3ccccc3F)CC2)c1,active: -78.1%
2,CCO/C=C/C(O)(CNC(=O)c1ccc(C(C)(C)C)cc1)C(F)(F)F (stereo not given),inconclusive: -37.2%
3,O=C(Cn1cnc2c(OCc3ccccc3)ncnc21)NCCc1c[nH]c2ccccc12,inconclusive: -31.2%
4,COc1cc(-c2nc3n(c(=O)c2C#N)CCS3)cc(OC)c1OC,inactive: -6.24%
5,CC1(C(=O)OCC(=O)Nc2cccc(S(=O)(=O)NC3=NCCCCC3)c2)CC1(Cl)Cl (stereo not given),inactive: 0.842%
6,COC(=O)[C@@]1(Cc2ccc(F)cc2)[C@H]2c3cc(C(=O)N(C)C)n(Cc4nc5ccccc5[nH]4)c3C[C@H]2CN1C(=O)c1ccccc1,active: -67.6%
7,C[C@@]12CC[C@@H](C3=C(CCC3)C1)N2c1ccccc1,inconclusive: -36.3%
8,CCCN(C(=O)c1cc(S(=O)(=O)N2CCN(CC)CC2)ccc1Cl)C1CCS(=O)(=O)C1 (stereo not given),inconclusive: -30.8%
9,Cn1c(=O)n(C)c2cc(/C=N/NC(=O)c3ccc(Cl)cc3)ccc21,inconclusive: -31.1%
10,CCN1C(=NCCCOC(C)C)N[C@@H](CCc2ccccc2)[C@H](C(=O)NCCCOC(C)C)[C@H]1C,inactive: 0%
11,COC(=O)C1=C(C)N(Cc2ccc(OC)cc2)C(=O)C1,inconclusive: -45.6%
12,O=C(/C=C/c1ccc2c(c1)OCO2)c1ccc(O)cc1O,inconclusive: -38.3%
13,CC(C)c1onc(C(=O)Nc2ccc3c(c2)OCO3)c1[N+](=O)[O-],inconclusive: -31.9%
14,CCCCC1=CC2=CC(=O)C(C)(OC(=O)CC)C(=O)C2=CN1C(CO)CO (stereo not given),inconclusive: -38.8%
15,COc1cc(Nc2ccc(C)cc2)c([N+](=O)[O-])nc1[N+](=O)[O-],inactive: -15.7%
16,CC(CCCN(C)C)C(Cc1ccccc1)c1ccccc1 (stereo not given),active: -69.5%
17,O=C(COc1ccc(F)cc1Br)Nc1ccccc1N1CCOCC1,inactive: 17.2%
18,CCOC(=O)C1(CCOC)CCN(Cc2ccc(C(=O)OC)cc2)CC1,inconclusive: -38.5%
19,CCc1nc2ccc(C(=O)N3CCN(S(=O)(=O)CC)CC3)cn2c1N(C)C(=O)c1cccc(OC)c1,inconclusive: -41.5%

# A draw from above in order of SMILES length, ascending:
row,SMILES,"max response, negative = inhibition"
12,Nc1ccc(N2CCCCC2)c2nonc12,inconclusive: -31.4%
11,COC(=O)C1=C(C)N(Cc2ccc(OC)cc2)C(=O)C1,inconclusive: -45.6%
4,O=C(O)c1cccc(S(=O)(=O)N2Cc3ccccc3C2)c1,inconclusive: -31.7%
10,Cc1ccccc1NC(=O)C[n+]1cc(-c2ccccc2)n2c1CCC2,inconclusive: -42.1%
18,CCCN(CCC)CCCNC(=S)Nc1ccc2nc(N3CCN(C)CC3)cc(C)c2c1,inactive: -18.8%
19,CCc1nc2ccc(C(=O)N3CCN(S(=O)(=O)CC)CC3)cn2c1N(C)C(=O)c1cccc(OC)c1,inconclusive: -41.5%
9,CC[C@@]1(C(=O)OC)N[C@H](CN(C)C(=O)c2ccccc2)[C@@H]2C(=O)N(Cc3ccccc3)C(=O)[C@@H]21,inactive: 0%

# Reference: PubChem BioAssay AID652054 (National Center for Advancing Translational Sciences (NCATS), 2013)
